Measurements published in paper PMC8618245, “Mechanisms of CP190 Interaction with Architectural Proteins in Drosophila Melanogaster” (International Journal of Molecular Sciences, 2021).
These are yes or no findings as the source states them, for the method shown. In cells and extracts the contact can be indirect. Some entries that bind do so weakly or less than the wild type. Where a sequence is shown, tags or fusion partners need not be part of it.

Amino acid sequences for entries named in this document (tags omitted). A change or cut given only in a name is not applied to a line headed by its entry.
UniProt Q9VS55: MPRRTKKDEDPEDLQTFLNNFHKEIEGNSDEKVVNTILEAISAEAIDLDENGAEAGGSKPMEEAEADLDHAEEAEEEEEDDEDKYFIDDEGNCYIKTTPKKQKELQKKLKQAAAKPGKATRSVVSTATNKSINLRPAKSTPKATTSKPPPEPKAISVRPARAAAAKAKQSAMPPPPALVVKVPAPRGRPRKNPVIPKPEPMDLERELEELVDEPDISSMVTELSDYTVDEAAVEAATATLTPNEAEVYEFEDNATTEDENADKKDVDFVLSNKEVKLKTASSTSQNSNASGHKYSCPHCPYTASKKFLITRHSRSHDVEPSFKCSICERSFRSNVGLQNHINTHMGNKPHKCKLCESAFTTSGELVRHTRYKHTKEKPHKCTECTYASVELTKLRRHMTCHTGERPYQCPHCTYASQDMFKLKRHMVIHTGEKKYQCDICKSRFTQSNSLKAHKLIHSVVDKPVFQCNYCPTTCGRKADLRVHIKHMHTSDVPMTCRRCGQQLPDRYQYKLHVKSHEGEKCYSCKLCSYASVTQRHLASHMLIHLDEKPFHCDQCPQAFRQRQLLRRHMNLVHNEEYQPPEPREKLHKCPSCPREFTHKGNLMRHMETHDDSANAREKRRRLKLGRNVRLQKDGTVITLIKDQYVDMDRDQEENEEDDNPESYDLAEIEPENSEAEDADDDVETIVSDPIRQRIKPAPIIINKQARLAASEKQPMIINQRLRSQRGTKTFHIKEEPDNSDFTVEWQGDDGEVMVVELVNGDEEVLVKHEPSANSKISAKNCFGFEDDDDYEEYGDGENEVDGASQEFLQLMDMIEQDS

Key:
[1] = molecular target: GST-fused dCTCF 715–733 (Drosophila melanogaster) (UniProt Q9VS55); experiment: pull-down
[2] = molecular target: T1, GST-fused Pita 220–232 (Drosophila melanogaster) (UniProt Q95RQ8); experiment: pull-down; GST pull-down from lysate of BL21 cells co-expressing the GST-fused C2H2 fragment and 6×His-Thioredoxin-fused CP190 1–126; glutathione agarose, buffer C (20 mM Tris pH 7.5, 150 mM NaCl, 10 mM MgCl2, 0.1 mM ZnCl2, 0.1% NP40, 10% glycerol, 1 mM DTT), +4 °C, washes with 500 mM NaCl
T1 sequence: KVLNKSSIRILNK

[3] = molecular target: T2, GST-fused Pita 95–193 (Drosophila melanogaster) (UniProt Q95RQ8); experiment: as above
T2 sequence: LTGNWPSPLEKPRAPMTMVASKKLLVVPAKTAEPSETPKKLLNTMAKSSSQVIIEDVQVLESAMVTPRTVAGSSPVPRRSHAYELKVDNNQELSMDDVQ

[4] = molecular target: T3, GST-fused Su(Hw) 150–187 (Drosophila melanogaster) (UniProt P08970); experiment: as above
T3 sequence: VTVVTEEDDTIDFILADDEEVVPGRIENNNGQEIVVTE

[5] = molecular target: T4, GST-fused Su(Hw) 1–150 (Drosophila melanogaster) (UniProt P08970); experiment: as above
T4 sequence: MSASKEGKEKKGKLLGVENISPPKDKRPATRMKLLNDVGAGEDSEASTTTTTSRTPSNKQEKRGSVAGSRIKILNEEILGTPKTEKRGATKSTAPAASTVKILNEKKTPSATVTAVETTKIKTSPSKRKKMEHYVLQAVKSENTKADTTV

B1: 6×His-Thioredoxin-fused CP190 1–126 (BTB domain) (domain or fragment, UniProt Q24478 1-126)
chain: MGEVKSVKVDNWGVFFLQKLQNFFNKTDYCDLTLQFRDNSQLKVHRLVLSACTDYFNVLEQTCEIVDDALIMPNEFQADVVVPIVNFMYTGTLEFELKMYGKLLRTAKEMNMTVLLKLLEAHRRTM
For B1, the binding [1] was “binds”, the binding [2] was “binds” and the binding [3] was “binds”. For the same binder, the binding [4] was “binds weakly” and the binding [5] was “binds”.
